What all share (experiment): co-IP
Assay [1] concerns the target RNF13-HA (wild-type, full-length human RNF13, HA-tagged) (human) (UniProt O43567).
Assay [2] shares this target. This is another data set of the same source.
The target is the same in assay [3]. The source holds these as a separate data set.

Sequences of proteins named here, by UniProt entry; tags and fusion partners are left off. A change or cut given only in a name is not applied to a line headed by its entry. Residues count along the entry.
UniProt O43567, 35-381: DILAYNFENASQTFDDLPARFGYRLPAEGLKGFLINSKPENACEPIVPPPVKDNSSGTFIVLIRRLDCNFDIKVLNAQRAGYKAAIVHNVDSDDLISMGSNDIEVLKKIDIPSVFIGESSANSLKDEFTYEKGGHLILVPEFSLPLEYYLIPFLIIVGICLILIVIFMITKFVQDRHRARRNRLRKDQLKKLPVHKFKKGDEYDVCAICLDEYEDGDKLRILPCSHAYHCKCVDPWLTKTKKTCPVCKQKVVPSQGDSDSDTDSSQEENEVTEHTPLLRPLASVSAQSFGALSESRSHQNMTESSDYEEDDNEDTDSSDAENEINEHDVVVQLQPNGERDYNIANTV

Read-outs that look alike come from different tables or passages of the source. Results are given in words; binding and its absence hold for the method and conditions named. Binding seen in cells or lysates may run through a third protein. Some binding calls cover weakened binding; strength is not graded here. Where a sequence is shown, tags or fusion partners need not be part of it.

B1: IDS-V5 (wild-type, full-length human iduronate 2-sulfatase, C-terminal V5 tag) (enzyme, UniProt P22304-1 26-550)
chain: SETQANSTTDALNVLLIIVDDLRPSLGCYGDKLVRSPNIDQLASHSLLFQNAFAQQAVCAPSRVSFLTGRRPDTTRLYDFNSYWRVHAGNFSTIPQYFKENGYVTMSVGKVFHPGISSNHTDDSPYSWSFPPYHPSSEKYENTKTCRGPDGELHANLLCPVDVLDVPEGTLPDKQSTEQAIQLLEKMKTSASPFFLAVGYHKPHIPFRYPKEFQKLYPLENITLAPDPEVPDGLPPVAYNPWMDIRQREDVQALNISVPYGPIPVDFQRKIRQSYFASVSYLDTQVGRLLSALDDLQLANSTIIAFTSDHGWALGEHGEWAKYSNFDVATHVPLIFYVPGRTASLPEAGEKLFPYLDPFDSASQLMEPGRQSMDLVELVSLFPTLAGLAGLQVPPRCPVPSFHVELCREGKNLLKHFRFRDLEEDPYLPGNPRELIAYSQYPRPSDIPQWNSDKPSLKDIKIMGYSIRTIDYRYTVWVGFNPDEFLANFSDIHAGELYFVDSDPLQDHNMYNDSQGGDLFQLLMP
Regarding B1, the binding entry in assay [1], in assay [2] and in assay [3] was “binds” each time.

B2: IDS N246Q-V5 (enzyme, UniProt P22304-1 26-550)
chain: SETQANSTTDALNVLLIIVDDLRPSLGCYGDKLVRSPNIDQLASHSLLFQNAFAQQAVCAPSRVSFLTGRRPDTTRLYDFNSYWRVHAGNFSTIPQYFKENGYVTMSVGKVFHPGISSNHTDDSPYSWSFPPYHPSSEKYENTKTCRGPDGELHANLLCPVDVLDVPEGTLPDKQSTEQAIQLLEKMKTSASPFFLAVGYHKPHIPFRYPKEFQKLYPLEQITLAPDPEVPDGLPPVAYNPWMDIRQREDVQALNISVPYGPIPVDFQRKIRQSYFASVSYLDTQVGRLLSALDDLQLANSTIIAFTSDHGWALGEHGEWAKYSNFDVATHVPLIFYVPGRTASLPEAGEKLFPYLDPFDSASQLMEPGRQSMDLVELVSLFPTLAGLAGLQVPPRCPVPSFHVELCREGKNLLKHFRFRDLEEDPYLPGNPRELIAYSQYPRPSDIPQWNSDKPSLKDIKIMGYSIRTIDYRYTVWVGFNPDEFLANFSDIHAGELYFVDSDPLQDHNMYNDSQGGDLFQLLMP
For B2, in assay [1], the binding result is “binds”.
